The list does not hold the whole screen: it is rich in T/C values a quarter to a half above the control, in often repeated tests (any T/C) and in doses without a T/C. Other doses and runs of a compound stand elsewhere. T/C: endpoint of the treated group in % of that of the vehicle group. Some doses have a count of surviving animals in place of a T/C: the source holds a T/C of zero for them, seemingly a mark for toxic or unscored doses. Some survivor counts are full or nearly so, which does not show that the dose was tolerated: the source hardly ever lists a survival T/C far under the control, and the zero likely stands for such cases as well. Survivors were counted at the toxicity check, usually on the fifth day, unless a day is given; later deaths do not show. Schedules are NCI's codes, read here as Q, the interval in days (D) or hours (H), X, the number of doses. Some doses were run more than once; the values are given in rising order. Where survival is the endpoint, this PubChem deposit counts one and a half times the control or more as active, and values a quarter to a half above the control carry no call in these data; other NCI protocols may use other cut-offs.
System: P388 leukemia ip, CD2F1 mice, survival T/C
Experiment: NCI In Vivo Anticancer Drug Screen. Data for tumor model P388 Leukemia (intraperitoneal) in CD2F1 (CDF1) mice
Conditions: T/C endpoint: median survival time, higher T/C = longer survival
[1] = dose: 200.0 mg/kg/injection, schedule: Q01DX005 (ip), vehicle: saline with Tween-80
[2] = dose: 50.0 mg/kg/injection, schedule: Q01DX009 (ip), vehicle: saline
[3] = dose: 240.0 mg/kg/injection, schedule: Q01DX005 (ip), vehicle: saline with Tween-80
[4] = dose: 100.0 mg/kg/injection, schedule: Q01DX009 (ip), vehicle: saline
[5] = dose: 25.0 mg/kg/injection, schedule: Q01DX009 (ip), vehicle: saline with Tween-80

## BrC1=CC(Br)=C2N=C(C(Br)(Br)Br)N=C3N=C(C(Br)(Br)Br)N=C1N32
dose: 120.0 mg/kg/injection, schedule: Q01DX005 (ip), vehicle: Klucel + Tween-80
  survivor count: 2 of 6
dose: 240.0 mg/kg/injection, schedule: Q01DX005 (ip), vehicle: Klucel + Tween-80
  survivor count: 0 of 6

## CN(C)c1ccc(C2(c3ccc(N(C)C)cc3)c3ccccc3C(=O)N2N)cc1
[1]
  survivor count: 4 of 6

## CC1(C)CC[C@]2(C(=O)O)CC[C@]3(C)C(=CC[C@@H]4[C@@]5(C)C[C@H](O)[C@H](O)[C@@](C)(C(=O)O)[C@@H]5CC[C@]43C)[C@@H]2C1
dose: 17.0 mg/kg/injection, schedule: Q01DX005 (ip), vehicle: Klucel (hydroxypropylcellulose) (HPC)
  survivor count: 6 of 6
dose: 34.0 mg/kg/injection, schedule: Q01DX005 (ip), vehicle: Klucel (hydroxypropylcellulose) (HPC)
  survivor count: 6 of 6
dose: 68.0 mg/kg/injection, schedule: Q01DX005 (ip), vehicle: Klucel (hydroxypropylcellulose) (HPC)
  survivor count: 4 of 6
dose: 136.0 mg/kg/injection, schedule: Q01DX005 (ip), vehicle: Klucel (hydroxypropylcellulose) (HPC)
  survivor count: 0 of 6

## CC(Br)C(=O)Nc1ncc([N+](=O)[O-])s1 (stereo unspecified)
[2]
  survivor count: 6 of 6

## O=C1OC(C2=CC(=O)c3ccccc3C2=O)C(Cl)=C1Cl (stereo unspecified)
[1]
  survivor count: 0 of 6

## Cc1ncc([N+](=O)[O-])n1CCSC#N
dose: 25.0 mg/kg/injection, schedule: Q04DX003 (ip), vehicle: saline with Tween-80
  survivor count: 1 of 6

## CNC(=O)OCC[N+](C)(C)C
dose: 12.5 mg/kg/injection, schedule: Q01DX009 (ip), vehicle: saline
  survivor count: 2 of 6 and 5 of 6
dose: 25.0 mg/kg/injection, schedule: Q01DX009 (ip), vehicle: saline
  survivor count: 0 of 6
[2]
  survivor count: 0 of 6

## CCC1CN2C(=N1)c1ccccc1-c1cc(Cl)ccc12 (stereo unspecified)
dose: 20.0 mg/kg/injection, schedule: Q01DX009 (ip), vehicle: saline
  T/C: 132 % of control
dose: 40.0 mg/kg/injection, schedule: Q01DX009 (ip), vehicle: saline
  T/C: 148 % of control
dose: 80.0 mg/kg/injection, schedule: Q01DX009 (ip), vehicle: saline
  survivor count: 0 of 6 and 2 of 6
dose: 160.0 mg/kg/injection, schedule: Q01DX009 (ip), vehicle: saline
  survivor count: 0 of 6

## Nc1cc(S(=O)(=O)c2ccc(O)c(N)c2)ccc1O
dose: 600.0 mg/kg/injection, schedule: Q01DX009 (ip), vehicle: saline
  survivor count: 2 of 6

## C=C1C(=O)OC2C1C(OC(=O)/C(C)=C/C)CC1(CO1)C1C(O)C3OC3(C)C21O (stereo unspecified)
dose: 100.0 mg/kg/injection, schedule: Q04DX002 (ip), vehicle: saline with Tween-80
  survivor count: 4 of 6
dose: 200.0 mg/kg/injection, schedule: Q04DX002 (ip), vehicle: saline with Tween-80
  survivor count: 1 of 6

## Nc1ccc2nc(-c3ccccc3)c(=O)oc2c1
[3]
  survivor count: 3 of 6

## O=C1/C(=C/c2ccc(F)cc2)SC(=S)N1c1ccc(Cl)c(Cl)c1
[4]
  survivor count: 5 of 6

## CC(=O)OC1CC(C(C)C2CC(C)=C(C)C(=O)O2)C2(C)CCC3C(CC4OC45C(O)C=CC(=O)C35C)C12O (stereo unspecified)
dose: 60.0 mg/kg/injection, schedule: Q01DX005 (ip), vehicle: Klucel (hydroxypropylcellulose) (HPC)
  survivor count: 0 of 6

## CCCCCCCCCCCCCCCCCCCC
dose: 25.0 mg/kg/injection, schedule: Q04DX003 (ip), vehicle: other
  survivor count: 6 of 6

## CC([NH-])CC(C)[NH-].[Cl][Pt+2][Cl] (stereo unspecified)
dose: 1.56 mg/kg/injection, schedule: Q04DX002 (ip), vehicle: saline with Tween-80
  T/C: 133 % of control
dose: 3.12 mg/kg/injection, schedule: Q04DX002 (ip), vehicle: saline with Tween-80
  T/C: 145 % of control
dose: 12.5 mg/kg/injection, schedule: Q04DX002 (ip), vehicle: saline with Tween-80
  survivor count: 6 of 6
dose: 25.0 mg/kg/injection, schedule: Q04DX002 (ip), vehicle: saline with Tween-80
  survivor count: 4 of 6 and 6 of 6

## C=C/C(C)=C/[C@H](C)C(=O)C[C@H](O)CC1CC(=O)NC(=O)C1
dose: 12.5 mg/kg/injection, schedule: Q01DX009 (ip), vehicle: saline with Tween-80
  T/C: 128 % of control
[5]
  T/C: 148 % of control
dose: 37.5 mg/kg/injection, schedule: Q01DX009 (ip), vehicle: saline
  T/C: 133 % of control
dose: 50.0 mg/kg/injection, schedule: Q01DX009 (ip), vehicle: saline with Tween-80
  survivor count: 3 of 6
dose: 50.0 mg/kg/injection, schedule: Q04DX003 (ip), vehicle: saline with Tween-80
  T/C: 128 % of control
dose: 75.0 mg/kg/injection, schedule: Q04DX003 (ip), vehicle: saline with Tween-80
  T/C: 141 % of control
dose: 100.0 mg/kg/injection, schedule: Q01DX009 (ip), vehicle: saline with Tween-80
  survivor count: 2 of 6
dose: 100.0 mg/kg/injection, schedule: Q04DX003 (ip), vehicle: saline with Tween-80
  T/C: 132 % of control
dose: 150.0 mg/kg/injection, schedule: Q04DX003 (ip), vehicle: saline with Tween-80
  T/C: 141 % of control

## O=[N+]([O-])c1ccc([O-])c([I+]c2ccccc2)c1
dose: 100.0 mg/kg/injection, schedule: Q01DX009 (ip), vehicle: Klucel (hydroxypropylcellulose) (HPC)
  survivor count: 6 of 6
dose: 200.0 mg/kg/injection, schedule: Q01DX009 (ip), vehicle: Klucel (hydroxypropylcellulose) (HPC)
  survivor count: 0 of 6

## O=C1c2ccccc2C(=O)N1Cc1cccc(I)c1
dose: 240.0 mg/kg/injection, schedule: Q01DX005 (ip), vehicle: Klucel (hydroxypropylcellulose) (HPC)
  survivor count: 6 of 6

## CN1C=[N+](C)Cc2nnn(Cc3ccccc3)c21
[2]
  survivor count: 0 of 6
[4]
  survivor count: 0 of 6
dose: 200.0 mg/kg/injection, schedule: Q01DX009 (ip), vehicle: saline
  survivor count: 0 of 6

## CCOC(=O)CCC(NC(=O)c1ccc(NS(=O)(=O)c2ccc(C)cc2)cc1)C(=O)OCC (stereo unspecified)
[5]
  survivor count: 6 of 6

## O=S(=O)(F)c1ccc(C[P+](c2ccccc2)(c2ccccc2)c2ccccc2)cc1Cl
dose: 120.0 mg/kg/injection, schedule: Q01DX005 (ip), vehicle: saline with Tween-80
  survivor count: 1 of 6
[3]
  survivor count: 0 of 6
